Assay results reported in the supplement of paper PMC9135407.
Values joined by “and” are separate entries in the source; they are usually repeats but may differ in a detail not shown here. Equal values may be shown once. Where a name gives a salt, the structure may show the parent alone. ± gives the standard deviation of the averaged measurements. Some of the results follow. Plates or batches differ in their baseline, so values are only roughly comparable.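 Culture-activated primary human stellate myofibroblasts, where regained lipid droplets signal inactivation. Value: share of Hoechst-counted cells above a per-plate Bodipy cutoff, in duplicate wells, with DMSO negative and nortriptyline positive controls on each plate. Hits: a control-normalized score above the plate's top-tenth-percentile nortriptyline wells, or one of a plate's three best wells. Final well concentrations are not given.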

Tested on: primary human hepatic stellate cells (donor 1)
Experiment: percent Bodipy-positive cells; higher = more lipid droplet accumulation
Settings: 48 h
[1] = library stock concentration: 10 mM
[2] = library stock concentration: 3.33 mM
[3] = library stock concentration: 1 mM
[4] = library stock concentration: 400 uM
[5] = library stock concentration: 2 mM

CC(=O)OCC(=O)[C@@]1(O)[C@H](OC(C)=O)C[C@H]2[C@@H]3CCC4=CC(=O)C=C[C@]4(C)[C@@]3(F)[C@@H](O)C[C@@]21C [Triamcinolone diacetate]
percent Bodipy-positive cells [1]: 16.1 ± 4.7%

Clc1cccc(Nc2nnc(-c3ccccc3)c3ccccc23)c1
percent Bodipy-positive cells [1]: 18.5 ± 2.4% | percent Bodipy-positive cells (library stock concentration: 15.1 mM): 36.2 ± 1.6%

CC(C)Cn1cnc2c(N)nc3ccccc3c21 [Imiquimod]
percent Bodipy-positive cells (library stock concentration: 8.3 mM): 7.2 ± 1.1%

O=C(O)C=Cc1cc(Br)c(Br)c(Br)c1Br [Casein Kinase II Inhibitor III, TBCA]
percent Bodipy-positive cells [2]: 12.1 ± 7.4%

Cc1nc2ccc(NC(=O)Nc3ccnc4cccnc34)cc2o1
percent Bodipy-positive cells [1]: 12.3 ± 5.3%

O=C(c1ccc(Nc2nccc(-c3cc4ccccc4s3)n2)cc1)N1CCC(N2CCCC2)CC1 [IKK-16 (IKK Inhibitor VII)]
percent Bodipy-positive cells [2]: 98.8 ± 1.7%

Oc1nc(-c2ccc(C(F)(F)F)cc2)nc2c1CSCC2
percent Bodipy-positive cells [3]: 12 ± 1.8% | percent Bodipy-positive cells [2]: 4.87 ± 3.7% | percent Bodipy-positive cells [1]: 19.3% and 6.28%

NC(=O)N1c2ccccc2CC(=O)c2ccccc21 [Oxcarbazepine]
percent Bodipy-positive cells [2]: 27.5 ± 0.34% | percent Bodipy-positive cells (library stock concentration: 7.9 mM): 6.37% and 9.36% | percent Bodipy-positive cells [1]: 13.1% and 36.8%

NC(=O)N1c2ccccc2CC(=O)c2ccccc21 [Trileptal]
percent Bodipy-positive cells [1]: 19.2 ± 4.7%

CCCCC[C@H](O)/C=C/[C@H]1OC(O)C[C@H](O)[C@@H]1C/C=C\CCCC(=O)O (stereo partly drawn) [Thromboxane B2]
percent Bodipy-positive cells [3]: 14 ± 4.4%

CCCCCCCCCCCCCCCC(=O)N[C@H](C)CO [R-Palmitoyl-(1-methyl) Ethanolamide]
percent Bodipy-positive cells [3]: 11.9 ± 1.2%

NC1=NCC2c3ccccc3Cc3ccccc3N12 (stereo not drawn) [Epinastine hydrochloride]
percent Bodipy-positive cells [1]: 78.7 ± 5.1%

NC1=NCC2c3ccccc3Cc3ccccc3N12 (stereo not drawn) [Epinastine HCl]
percent Bodipy-positive cells [2]: 11.7 ± 1.2% | percent Bodipy-positive cells [1]: 49.3 ± 7.6%

Cn1cncc1[C@@](N)(c1ccc(Cl)cc1)c1ccc2c(c1)c(-c1cccc(Cl)c1)cc(=O)n2C [Tipifarnib]
percent Bodipy-positive cells [2]: 8.56 ± 2.1% | percent Bodipy-positive cells [1]: 47.1 ± 10%

Cc1nnc(SCC2=C(C(=O)O)N3C(=O)[C@@H](NC(=O)Cn4cnnn4)[C@H]3SC2)s1 [Cefazolin sodium salt]
percent Bodipy-positive cells: 10.1 ± 2.2%

Cc1nnc(SCC2=C(C(=O)O)N3C(=O)[C@@H](NC(=O)Cn4cnnn4)[C@H]3SC2)s1 [Cefazolin?Sodium]
percent Bodipy-positive cells [1]: 29.4 ± 2%

Cc1nnc(SCC2=C(C(=O)O)N3C(=O)[C@@H](NC(=O)Cn4cnnn4)[C@H]3SC2)s1 [Cefazolin sodium]
percent Bodipy-positive cells [1]: 12.6% and 37.2%

Cc1cc(C#N)cc(C)c1Oc1nc(Nc2ccc(C#N)cc2)nc(N)c1Br [Etravirine (TMC125)]
percent Bodipy-positive cells [2]: 16.1 ± 4.8% | percent Bodipy-positive cells [1]: 74.1 ± 6.5%

C=CC(=O)Nc1cc(-n2c(=O)ccc3cnc4ccc(-c5cn[nH]c5)cc4c32)ccc1C
percent Bodipy-positive cells (library stock concentration: 80 uM): 14.5 ± 2.4% | percent Bodipy-positive cells [4]: 7.18 ± 1.1% | percent Bodipy-positive cells [5]: 22.3 ± 5.7% | percent Bodipy-positive cells [1]: 76.7 ± 20%

Nc1nc2c(ncn2[C@@H]2O[C@H](CO)[C@@H](O)[C@@H]2O)c(=O)[nH]1 [Ara-G hydrate]
percent Bodipy-positive cells [1]: 17.04 ± 0.097%

O=c1[nH]c(=O)n([C@H]2C[C@H](O)[C@@H](CO)O2)cc1C(F)(F)F [Trifluridine]
percent Bodipy-positive cells: 9.54 ± 4.1% | percent Bodipy-positive cells [2]: 20.8 ± 6% | percent Bodipy-positive cells (library stock concentration: 6.8 mM): 14.7 ± 0.95% | percent Bodipy-positive cells [1]: 21.8% and 44%

COc1ccc2c3c1O[C@H]1C[C@@H](O)C=C[C@@]31CCN(C)C2 [Galanthamine]
percent Bodipy-positive cells [1]: 11.4 ± 3.9%

COc1ccc2c3c1O[C@H]1C[C@@H](O)C=C[C@@]31CCN(C)C2 [Galanthamine hydrobromide]
percent Bodipy-positive cells: 31.9 ± 0.44% | percent Bodipy-positive cells (library stock concentration: 5.4 mM): 13.8 ± 1.1% | percent Bodipy-positive cells [1]: 19.7% and 6.46%

COc1ccc2c3c1O[C@H]1C[C@@H](O)C=C[C@@]31CCN(C)C2 [Galanthamine HBr]
percent Bodipy-positive cells (library stock concentration: 7 mM): 9.06 ± 3.6%

Cc1cc(F)c(Nc2ncnc3cc(OCc4ccccc4)ccc23)cc1O
percent Bodipy-positive cells [2]: 17.2 ± 2.5% | percent Bodipy-positive cells [1]: 45.2% and 20.6%

CCCCC1(C2CCCC2)Cc2cc(OCC(=O)O)c(Cl)c(Cl)c2C1=O (stereo in doubt) [R(+)-Butylindazone]
percent Bodipy-positive cells [1]: 29.3 ± 3.5%

CC1(C)S[C@@H]2[C@H](NC(=O)COc3ccccc3)C(=O)N2[C@H]1C(=O)O [Penicillin v potassium]
percent Bodipy-positive cells (library stock concentration: 5.1 mM): 2.37 ± 0.67% | percent Bodipy-positive cells [1]: 15.9 ± 0.67%

CC1(C)S[C@@H]2[C@H](NC(=O)COc3ccccc3)C(=O)N2[C@H]1C(=O)O [Penicillin V]
percent Bodipy-positive cells [1]: 33.4 ± 4.8%

CCCC(=O)O[C@]1(C(=O)CO)CC[C@H]2[C@@H]3CCC4=CC(=O)CC[C@]4(C)[C@H]3[C@@H](O)C[C@@]21C [Hydrocortisone butyrate]
percent Bodipy-positive cells [1]: 20.3 ± 2.7%

CC(C)NC(=N)NC(=N)Nc1ccc(Cl)cc1 [Proguanil hydrochloride]
percent Bodipy-positive cells: 21.7 ± 2.4%

CC(C)NC(=N)NC(=N)Nc1ccc(Cl)cc1 [Chloroguanide hydrochloride]
percent Bodipy-positive cells (library stock concentration: 6.9 mM): 19.1 ± 4.7%

CC(C)n1cnc2c(NCCc3ccc(O)cc3)nc(-c3csc4ccccc34)nc21 [StemRegenin 1 (SR1)]
percent Bodipy-positive cells [2]: 8.14 ± 1.1%

O=C(NNc1ccccc1)c1ccncc1
percent Bodipy-positive cells [2]: 26.89 ± 0.081% | percent Bodipy-positive cells [1]: 29.8 ± 7.1%

Cc1nc2c(O)cccc2c(=O)[nH]1
percent Bodipy-positive cells [1]: 7.04 ± 2.4%

CCCCc1nc2ccn(Cc3cccs3)c(=O)c2n1Cc1ccc(-c2ccccc2-c2nn[nH]n2)cc1
percent Bodipy-positive cells [1]: 7.81 ± 0.98%

O=C1OC(=O)[C@H]2[C@@H]1[C@@H]1CC[C@H]2O1 [Norcantharidin]
percent Bodipy-positive cells [1]: 61.6 ± 1.3%

CN(C)CC[C@@H](c1ccc(Br)cc1)c1ccccn1
percent Bodipy-positive cells [1]: 40.8 ± 16%

O=P(O)(O)OC1[C@@H](O)[C@H](O)C(O)[C@H](O)[C@@H]1O (stereo partly drawn) [D-myo-Inositol-3-phosphate (sodium salt)]
percent Bodipy-positive cells [3]: 6.93 ± 1.5%

NCCCCN [Putrescine dihydrochloride]
percent Bodipy-positive cells [1]: 12.3 ± 1.1%

CN(C)CCOc1cc(-c2cn[nH]c2)ccc1NC(=O)C1COc2ccccc2O1 (stereo not drawn)
percent Bodipy-positive cells [4]: 22.9 ± 7% | percent Bodipy-positive cells [5]: 48 ± 11%

CN(Cc1ccc(C(C)(C)C)cc1)Cc1cccc2ccccc12 [Butenafine]
percent Bodipy-positive cells (library stock concentration: 6.3 mM): 9.86 ± 1.3%

CN(Cc1ccc(C(C)(C)C)cc1)Cc1cccc2ccccc12 [Butenafine HCl]
percent Bodipy-positive cells [2]: 13.3 ± 7.3% | percent Bodipy-positive cells [1]: 39.1 ± 1.8%
